# At least one structure is not confirmed: it was looked up by name or label, or the drawing left a doubt.
# Assay: Affinity for the exchange site of the anion exchange resin, estimated from pKa
# Type: physicochemical
smiles,measurement,setting,value
"O=C(O)CCCO [GHB, Gamma-hydroxybutyrate]",affinity of GHB relative to bicarbonate,anion exchange resin,about 67%
same,affinity relative to chloride on the anion exchange resin,estimated from pKa relative to other short-chain fatty acids,approximately 18%
